The list shows a part of the results. Single values are uncertain here, since repeats match poorly.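 Human kidney-derived cells stably carry a construct in which eight TEAD-binding elements drive luciferase, measured by luminescence in a drug-repurposing library screen. A hit is any compound whose signal exceeds the plate mean by more than five robust Z scores.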
System: HEK293A TEAD-LUC reporter
Experiment: TEAD-luciferase reporter activity (YAP activation), robust Z score vs plate; higher = stronger YAP/TEAD activation
Details: 24 h

Row | Structure (SMILES) | TEAD-luciferase reporter activity (compound concentration: 200 nM) | TEAD-luciferase reporter activity (compound concentration: 2 uM) | TEAD-luciferase reporter activity (compound concentration: 10 uM)
1 | CCNCC(O)COc1ccccc1C1CC2CCC1C2 (centres undefined) | inactive: -0.24 | inactive: -0.126 | inactive: -0.404
2 | CCC(O)CC1CCC(C(C)C(=O)OC(C)CC2CCC(C(C)C(=O)O)O2)O1 (centres undefined) | inactive: -1.79 | inactive: -1.54 | inactive: 1.26
3 | CC1(C)Oc2ccc(C#N)cc2[C@@H](OC2=CC(=O)CC2)[C@@H]1O | inactive: 0.116 | inactive: 0.247 | inactive: -0.201
4 | COC(=O)C1=C(C)NC(C)=C(C(=O)OCC(C)=O)C1c1ccccc1[N+](=O)[O-] (centres undefined) | inactive: -0.609 | inactive: -1.3 | inactive: -0.627
5 | CN[C@@H](C)C(=O)N[C@H](C(=O)N1CCC[C@H]1CN(CCc1ccccc1)C(=O)C(F)(F)F)[C@@H](C)OCC#CC#CCO[C@H](C)[C@H](NC(=O)[C@H](C)NC)C(=O)N1CCC[C@H]1CN(CCc1ccccc1)C(=O)C(F)(F)F | inactive: -0.00457 | inactive: -1.39 | inactive: -1.19
6 | CCOP(=O)(Cc1ccc(-c2nc3ccccc3s2)cc1)OCC [Fostedil] | active: 8.75 | active: 6.84 | active: 8.88
7 | CS(=O)(=O)N1CCN(Cc2cc3nc(-c4cccc5[nH]ncc45)nc(N4CCOCC4)c3s2)CC1 [pictilisib] | inactive: -1.37 | inactive: 0.668 | inactive: 3.46
8 | CCc1cccc2c3c([nH]c12)C(CC)(CC(=O)O)OCC3 (centres undefined) | inactive: -0.677 |  | inactive: -0.392
9 | CCc1cccc2c3c([nH]c12)C(CC)(CC(=O)O)OCC3 [(R)-etodolac] |  | inactive: -0.793 | 
10 | NC(=O)[C@@H]1CC[C@@H]2CN1C(=O)N2OS(=O)(=O)O [Avibactam sodium] | inactive: -0.598 | inactive: 0.139 | inactive: -0.00938
11 | COc1ccc(-n2nnnc2C(F)(F)F)cc1CN[C@H]1CCCN[C@H]1c1ccccc1 | inactive: 0.651 | inactive: 0.79 | inactive: -0.758
12 | CCCN(CCC)S(=O)(=O)c1ccc(C(=O)O)cc1 [Probenecid] |  | inactive: -2.94 | 
13 | CCCN(CCC)S(=O)(=O)c1ccc(C(=O)O)cc1 [probenecid57-66-9] | inactive: -0.365 |  | inactive: -0.899
14 | C[C@H](NC(=O)Cc1ccc(Cl)cc1)C(=O)Nc1ccc(C2S/C(=N\c3cccc(F)c3)N(Cc3ccco3)C2=O)cc1 (some centres undefined) | inactive: -0.251 | inactive: 0.0756 | inactive: -0.604
15 | COc1nc(N)nc2[nH]cnc12 | inactive: 3.47 | inactive: -1.27 | inactive: 0.477

An excerpt of these results, field by field:
CCCN(CCC)S(=O)(=O)c1ccc(C(=O)O)cc1 [Probenecid]
  TEAD-luciferase reporter activity (compound concentration: 2 uM): inactive: -2.94
C[C@H](NC(=O)Cc1ccc(Cl)cc1)C(=O)Nc1ccc(C2S/C(=N\c3cccc(F)c3)N(Cc3ccco3)C2=O)cc1 (some centres undefined)
  TEAD-luciferase reporter activity (compound concentration: 200 nM): inactive: -0.251; TEAD-luciferase reporter activity (compound concentration: 2 uM): inactive: 0.0756; TEAD-luciferase reporter activity (compound concentration: 10 uM): inactive: -0.604

Reference: the supplement of paper PMC10735217
